Our source for the binding values is publication PMC4695046.

Chains of the proteins cited; added tags and fusions are not shown. Residues count along the entry.
UniProt P07339, residues 65-412: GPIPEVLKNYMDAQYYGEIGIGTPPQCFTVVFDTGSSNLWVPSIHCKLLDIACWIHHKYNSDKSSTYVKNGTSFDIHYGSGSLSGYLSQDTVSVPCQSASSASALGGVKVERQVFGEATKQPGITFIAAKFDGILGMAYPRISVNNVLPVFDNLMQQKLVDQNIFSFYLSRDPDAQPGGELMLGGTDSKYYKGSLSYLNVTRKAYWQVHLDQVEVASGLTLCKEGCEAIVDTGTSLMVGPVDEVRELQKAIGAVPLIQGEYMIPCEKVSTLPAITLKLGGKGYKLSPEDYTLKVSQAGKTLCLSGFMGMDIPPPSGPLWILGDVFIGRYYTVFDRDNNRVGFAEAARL
UniProt P46379, residues 376-659: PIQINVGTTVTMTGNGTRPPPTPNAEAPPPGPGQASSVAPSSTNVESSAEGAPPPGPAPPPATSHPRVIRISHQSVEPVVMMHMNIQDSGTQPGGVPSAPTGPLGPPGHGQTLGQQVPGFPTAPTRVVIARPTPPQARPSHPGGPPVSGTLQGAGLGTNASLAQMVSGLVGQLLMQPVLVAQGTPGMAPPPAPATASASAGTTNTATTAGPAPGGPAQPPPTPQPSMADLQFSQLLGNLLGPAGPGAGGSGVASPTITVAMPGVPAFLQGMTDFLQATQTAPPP

Where two headings read alike, the source gives them in different places. These are yes or no findings as the source states them, for the method shown. Some entries that bind do so weakly or less than the wild type.

Experiment [1] concerns the target 48-kDa Cath-D form (aa 65–412 of human cathepsin D), yeast two-hybrid bait (human) (UniProt P07339). Nature of the experiment: two-hybrid; screen by Hybrigenics Services; Cath-D aa 65-412 as bait against a randomly-primed human breast tumor epithelial cell cDNA library.
For experiment [2] the target is unchanged. Described as above. This is another data set of the same source.

For the molecule “BAT3 clone (residues 376–659) identified in the yeast two-hybrid screen (from UniProt P46379 376-659) (domain or fragment)”, the binding entry in experiment [1] is reported as “binds”.

B1: TRPS1 clone (residues 635–1281) identified in the yeast two-hybrid screen (domain or fragment, UniProt Q9UHF7 635-1281)
chain: SVHESQASDVKQEANHLQGSDGQQSVKESKEHSCTKCDFITQVEEEISRHYRRAHSCYKCRQCSFTAADTQSLLEHFNTVHCQEQDITTANGEEDGHAISTIKEEPKIDFRVYNLLTPDSKMGEPVSESVVKREKLEEKDGLKEKVWTESSSDDLRNVTWRGADILRGSPSYTQASLGLLTPVSGTQEQTKTLRDSPNVEAAHLARPIYGLAVETKGFLQGAPAGGEKSGALPQQYPASGENKSKDESQSLLRRRRGSGVFCANCLTTKTSLWRKNANGGYVCNACGLYQKLHSTPRPLNIIKQNNGEQIIRRRTRKRLNPEALQAEQLNKQQRGSNEEQVNGSPLERRSEDHLTESHQREIPLPSLSKYEAQGSLTKSHSAQQPVLVSQTLDIHKRMQPLHIQIKSPQESTGDPGNSSSVSEGKGSSERGSPIEKYMRPAKHPNYSPPGSPIEKYQYPLFGLPFVHNDFQSEADWLRFWSKYKLSVPGNPHYLSHVPGLPNPCQNYVPYPTFNLPPHFSAVGSDNDIPLDLAIKHSRPGPTANGASKEKTKAPPNVKNEGPLNVVKTEKVDRSTQDELSTKCVHCGIVFLDEVMYALHMSCHGDSGPFQCSICQHLCTDKYDFTTHIQRGLHRNNAQVEKNGKPKE
As for B1, the binding result in experiment [2] was “binds”.
